Laboratory results reported in patent US11896675B2 (AbTis Co., Ltd., priority 2019, dated 2024).

Assay: peptide synthesis
Details: whole synthesis, analytical HPLC; molecular weight confirmed by LC/MS

Substance | final HPLC purity
H-PEG8-Asp-Cys*-Ala-Trp-His-Orn-Gly-Glu-Leu-Val-Trp-Cys*-Thr-NH2 | 90% or more
H-PEG8-Asp-Cys*-Ala-Trp-His-Lys-Gly-Glu-Leu-Val-Trp-Cys*-Thr-NH2 | 90% or more
